Earlier results on 1 sequence are cited in PMC11070850.

This data set concerns mucin 1. The experiment in a line: DNA nanospheres of Y1/Y2/Y3 as competing partner. To be noted: 10 mM MOPS, 100 mM NaNO3, pH 7.6, room temperature, 60 min (aptamer + mucin 1 + DNA nanospheres); then CuSO4 50 min and calcein 2 min; commercial protein; single-stranded DNA.

For at least one entry, the source does not settle the construct or the ends of the probe.

“GCAGTTGATCCTTTGGATACCCTGG [mucin 1 aptamer]”: the binding result was “binds”.
